These are yes or no findings as the source states them, for the method shown. Some entries that bind do so weakly or less than the wild type.
Key:
[1] = biological target: human NKp46-His fusion protein (human) (UniProt O76036); experiment: ELISA, NKp46-His coated, anti-human HRP
[2] = biological target: cynomolgus monkey-His fusion protein (cynomolgus monkey) (UniProt Q95JB9); experiment: ELISA, NKp46-His coated, anti-human HRP

Protein sequences, listed by entry. Tags and fused reporters are not part of them. Lines headed by an entry give the natural chain unless they say otherwise; changes in a name come on top. Residues count along the entry.
UniProt O76036: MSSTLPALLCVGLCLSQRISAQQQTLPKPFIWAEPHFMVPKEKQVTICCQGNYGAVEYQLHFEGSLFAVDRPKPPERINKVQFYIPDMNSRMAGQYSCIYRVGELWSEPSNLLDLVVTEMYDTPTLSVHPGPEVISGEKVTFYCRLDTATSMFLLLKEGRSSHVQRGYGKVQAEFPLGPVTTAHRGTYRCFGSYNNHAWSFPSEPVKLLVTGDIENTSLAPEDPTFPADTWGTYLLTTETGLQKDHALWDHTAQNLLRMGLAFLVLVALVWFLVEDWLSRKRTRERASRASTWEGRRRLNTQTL
UniProt Q95JB9, residues 22-257: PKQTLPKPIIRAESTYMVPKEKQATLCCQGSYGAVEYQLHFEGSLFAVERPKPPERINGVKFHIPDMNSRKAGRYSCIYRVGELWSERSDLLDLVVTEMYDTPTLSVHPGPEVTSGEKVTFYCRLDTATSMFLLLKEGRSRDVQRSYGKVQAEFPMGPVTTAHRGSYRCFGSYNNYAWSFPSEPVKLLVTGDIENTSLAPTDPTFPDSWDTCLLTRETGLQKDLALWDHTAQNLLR

B1: IN0321 (antibody, human IgG1, kappa, L234A L235A, V domains shown)
VH: QVQLQQPGSELVRPGASVKLSCKASGYTFTSYWMHWVKQRPGQGLEWIGTIYPGSDITNYDEKFKNKATLTVDTSSSTAYMQLSSLTSEDSAVYYCTRDGRFANWGQGTLVTVSA
VL: EIQMTQSPSSLSASLGERVSLTCRASQDIGSSLNWLQQEPDGTIKRLIYATSSLDSGVPKRFSGSRSGSDYSLTISSLESEDFVDYYCLQYASSPYTFGGGTKLEIKR
binding [1]: binds | binding [2]: binds
